# Results: PubChem BioAssay AID1347076 (National Center for Advancing Translational Sciences (NCATS), 2019)
# Hit rate of the full screen: of about 400,000 compounds, about 13,000 (3.2%) were called active. This list was built around the results that the source calls inconclusive (neither active nor inactive); the mix of calls is not that of the screen. Calls follow the shape of the dose curve; as a rule, active = well fitted cell-killing curve with a large enough effect; inconclusive = small, poorly fitted or top-dose-only effect, or effect the other way; inactive = flat fitted curve, though single readings scatter. Where the call is inconclusive, the potency comes from a doubtful curve fit.
# Assay: qHTS assay for MDR1-selective chemotherapeutics: Primary screen using the drug-selected MDR subline cells KB-V1; also: nearly all actives have a fitted effect of over 60% in size
# Settings: KB-V1 MDR cells viability, CellTiter-Glo, 72 h; activity change, negative = cytotoxicity: at 46.1 µM (top of the series)
# Method in brief: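 In this primary screen, KB-V1 cells overexpressing P-gp are incubated with library compounds (lowest to highest concentration) for 72 h at 37 degrees C before a luminescent ATP viability read.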
# % is scaled to controls: 0 for no effect and ±100 for the full control effect; potency is read from the fitted curve at half-maximal effect.
SMILES,Potency,"activity change, negative = cytotoxicity"
CCCCCN1C=CC(=C2C(=O)c3ccccc3C2=O)C=C1,active: 9.2 µM,–
O=C(Nc1ccccc1N1CCN(C(=O)c2ccccc2)CC1)c1ccc(Br)o1,"inconclusive: 16.4 µM [cytotoxic, single point]",–
CN(C)C(CNC(=O)/C=C/c1cccc(Cl)c1)c1ccccc1 (stereo not given),–,inconclusive: -41.1%
COC(=O)c1cc(OC(=O)CCc2ccc(OC)c(OC)c2)cc(C(=O)OC)c1,"inconclusive: 23.1 µM [rising, single point]",–
CCn1c(-c2cccc(Br)c2)n[nH]c1=S,"inconclusive: 29.1 µM [cytotoxic, single point]",–
CC(=O)c1ccc(N2CCN(C(=O)c3cc4c(C)nc5ccccc5c4o3)CC2)cc1,"inconclusive: 0.651 µM [cytotoxic, full curve, poor fit]",–
O=c1oc2ccccc2cc1-c1nc2ccccc2o1,–,inactive: 6.68%
COc1ccc(S(=O)(=O)NCCOc2ccc(Cl)cc2)cc1,–,inactive: -6.51%
COC(=O)C1=C(C)N(Cc2ccccc2)C(=NCc2cccc(Cl)c2)N[C@H]1c1cccc(F)c1,active: 20.6 µM,–
Fc1ccc(NC(=S)NCCc2ccc(Cl)cc2)cc1,"inconclusive: 18.4 µM [cytotoxic, single point]",–
O=C(Cc1ccccc1)N/N=C/c1ccccc1Cl,–,inactive: -3.5%
CC1CCN(C(=O)C2COc3ccccc3C2)CC1 (stereo not given),"inconclusive: 29.1 µM [rising, single point]",–
COc1ccc(C(=O)N=C2SC3CS(=O)(=O)CC3N2c2ccc(C(C)=O)cc2)cc1 (stereo not given),"inconclusive: 20.6 µM [rising, single point]",–
CC(C)CNc1nc(N)c([N+](=O)[O-])c(N2CCCCCC2)n1,active: 9.2 µM,–
COCCNC(=O)C1(C)CCCN(CCOc2ccc(Cl)cc2)C1 (stereo not given),–,inactive: 0.984%
CN(C)C(=O)c1cc([N+](=O)[O-])ccc1O,"inconclusive: 18.4 µM [rising, single point]",–
COC(=O)c1ccc2c(c1)S(=O)(=O)NC(=NCCCN1CCOCC1)S2,"inconclusive: 3.26 µM [rising, full curve, poor fit]",–
COc1cccc(-c2cc(C(=O)Nc3cccnc3)c3ccccc3n2)c1,"inconclusive: 4.11 µM [cytotoxic, partial curve]",–
CCCCOC(=O)CSc1n[nH]c(=O)[nH]c1=O,"inconclusive: 16.4 µM [rising, partial curve, poor fit]",–
CCN(CC)S(=O)(=O)c1cc(NC(=O)Cc2ccsc2)ccc1C,"inconclusive: 18.4 µM [cytotoxic, single point]",–
COc1ccc(NC(=O)C2(C)Cc3c(-c4cccc(C(N)=O)c4)ccnc3O2)cc1 (stereo not given),"inconclusive: 25.9 µM [cytotoxic, partial curve, poor fit]",–
CN(C)CCNC(=O)C(=O)Nc1cc2c3c(c1)CCC(=O)N3CCC2,–,inactive: 10.1%
CCc1nn(CC(=O)Nc2ccc(NC(C)=O)cc2)c(=O)c2cc3sccc3n12,–,inconclusive: -8.85%
Cc1cc2cc(C#N)c(N3CCN(S(C)(=O)=O)CC3)nc2cc1C,active: 18.4 µM,–

SMILES,Potency,"activity change, negative = cytotoxicity"
CCOC(=O)C1(Cc2cccc(F)c2)CCN(C(=O)c2cnccn2)CC1,"inconclusive: 14.6 µM [cytotoxic, partial curve]",–
Nc1cccc(NC(=O)CN2CCOCC2)c1,"inconclusive: 18.4 µM [cytotoxic, single point]",–
O=C(Nc1ccc2c(c1)OCCO2)c1c(F)c(F)c(F)c(F)c1F,–,inactive: 8.48%
O=C(NCc1ccco1)c1sc2cccc(F)c2c1Cl,"inconclusive: 20.6 µM [cytotoxic, partial curve, poor fit]",–
O=C(CN(Cc1ccccc1Cl)C(=O)c1ccc(CN2CCOCC2)o1)NCc1ccccc1,active: 11.6 µM,–
CCNC(=O)COC(=O)CCNC(=O)c1ccc(Cl)cc1,"inconclusive: 29.1 µM [rising, single point]",–
O=C(c1ccc(Cl)c(S(=O)(=O)N2CCCCC2)c1)N1CCCCCC1,"inconclusive: 9.2 µM [cytotoxic, partial curve]",–
O=C(CN(C(=O)CNS(=O)(=O)c1ccc(F)cc1)c1cccc(F)c1)NCC1CCCO1 (stereo not given),"inconclusive: 23.1 µM [rising, partial curve, poor fit]",–
CCN(CC)C(=O)Cn1cc(C(=O)C(=O)N2CC=C(c3ccccc3)CC2)c2ccccc21,"inconclusive: 5.17 µM [cytotoxic, partial curve, poor fit]",–
Cn1c(SCC(=O)Nc2ccccc2F)nnc1C1CCCCC1,"inconclusive: 18.4 µM [cytotoxic, single point]",–
O=C(Oc1ccc(-c2ccccc2)cc1)N1CCOCC1,"inconclusive: 29.1 µM [cytotoxic, single point]",–
Cc1ccc(Nc2nc(NCc3cccs3)nc3ccsc23)c(C)c1,"inconclusive: 18.4 µM [cytotoxic, single point]",–
COc1ccc(O)c(C(=O)c2cnn(-c3ccccn3)c2)c1,"inconclusive: 29.1 µM [cytotoxic, single point]",–
S=c1[nH]nc(-c2ccco2)n1/N=C/c1c(Cl)cccc1Cl,–,inactive: 8.7%
O=C1Nc2ccccc2N=C(c2ccccc2)c2ccccc21,"inconclusive: 29.1 µM [cytotoxic, single point]",–
Cc1cc(C)c2c3c(sc2n1)C(=O)N(c1ccccc1C)CC(=O)N3,–,inactive: -25.9%
C/C(=N\NC(=O)c1ccc(C)cc1)c1c(C)[nH]n(-c2ccccc2)c1=O,"inconclusive: 29.1 µM [cytotoxic, single point]",–
COc1ccc(C(=Cc2ccccc2)C(=O)O)cc1,"inconclusive: 0.0058 µM [rising, full curve, poor fit]",–
CC(C)n1c(NCc2c[nH]c3ccccc23)nc2ccccc21,"inconclusive: 29.1 µM [cytotoxic, single point]",–
COC(=O)c1c(-c2ccc3ccccc3c2)csc1NC(=O)Cc1ccc(OC)c(OC)c1,active: 14.6 µM,–
Cc1nc(C(=O)NNC(=O)c2cccc(Cl)c2)c(C(F)(F)F)o1,"inconclusive: 18.4 µM [cytotoxic, single point]",–
Cc1ccc(S(=O)(=O)N(CCc2ccccc2)CC(=O)Nc2ccc(Br)cc2)cc1,–,inactive: -21.9%
O=C(Cn1nc2ccccc2n1)N/N=C/c1cc([N+](=O)[O-])ccc1O,"inconclusive: 18.4 µM [cytotoxic, partial curve, poor fit]",–
CCOc1ccccc1OCCCC(=O)Nc1cc(S(=O)(=O)N2CCCCC2)ccc1C,"inconclusive: 10.3 µM [cytotoxic, partial curve]",–

SMILES,Potency,"activity change, negative = cytotoxicity"
N=C1/C(=C/c2cccs2)C(=O)N=C2SN=C(SCc3ccccc3)N12,active: 23.1 µM,–
Cc1c(C(=O)Nc2ccccc2Cl)oc2ccc(S(=O)(=O)N3CCCCC3)cc12,–,inactive: 8.9%
O=C1CCCN1CCCNc1nc2c(S(=O)(=O)c3ccccc3)nnn2c2ccc(Cl)cc12,"inconclusive: 32.6 µM [cytotoxic, single point]",–
CCOC(=O)c1cc(C(=O)OCC)c(=O)[nH]c1N1CCCCC1,"inconclusive: 16.4 µM [cytotoxic, single point]",–
COc1ccc(-n2nc(C(=O)NCc3ccc(F)cc3Cl)c3c4ccccc4n(C)c3c2=O)cc1Cl,"inconclusive: 20.6 µM [rising, single point]",–
Cc1c(CCOC(=O)C2C3CC4CC(C3)CC2C4)sc[n+]1CC(=O)c1ccc(Br)cc1 (stereo not given),"inconclusive: 29.1 µM [cytotoxic, single point]",–
Cc1ccnc(NC(=O)CSc2cc(=O)n(C)c3ccccc23)c1,"inconclusive: 29.1 µM [cytotoxic, single point]",–
Cc1nc(C)c(Oc2ccc(Cl)cc2Cl)c(=O)[nH]1,–,inactive: 14.7%
CCCOc1ccc(C2CC(=O)Nc3c2c(=O)n(C)c(=O)n3C)cc1OC (stereo not given),–,inactive: 0%
COc1ccc(Cn2cc(CN3CC(N4CCSCC4)CS3(=O)=O)nn2)cc1 (stereo not given),"inconclusive: 18.4 µM [cytotoxic, partial curve]",–
O=C(CNC(=O)c1cccs1)c1ccc(F)cc1,–,inactive: -15.7%
COCC(C)Nc1ncnc2c1cnn2-c1ccc(C)c(C)c1 (stereo not given),–,inactive: 0%
C=CCNC(=O)CN(c1ccccc1OCC)S(=O)(=O)c1ccc(C)cc1,"inconclusive: 9.2 µM [cytotoxic, partial curve]",–
O=CN(Cc1ccco1)C1(C(=O)NC2CCCCC2)CCCCC1,"inconclusive: 14.6 µM [cytotoxic, partial curve]",–
Cc1ccc(N2CC(C(=O)NCc3n[nH]c(=O)c4ccccc34)CC2=O)cc1C (stereo not given),"inconclusive: 32.6 µM [rising, single point]",–
O=C(c1cc2cc(Cl)ccc2[nH]1)N1CCN(Cc2ccc3c(c2)OCO3)CC1,"inconclusive: 25.9 µM [cytotoxic, single point]",–
COc1cccc(C(=O)/C=C/Nc2ccc(S(=O)(=O)Nc3cccc(C(C)=O)c3)cc2)c1,"inconclusive: 29.1 µM [cytotoxic, single point]",–
CCOC(=O)[C@]12CCC=C1N(Cc1ccccc1)C(=O)[C@H](CC(=O)NCCc1ccccc1OC)C2,"inconclusive: 5.17 µM [cytotoxic, partial curve]",–
CCC(=O)Oc1ccc2c(C)c(Cl)c(=O)oc2c1,–,inactive: -2.34%
CCOc1ccc(NS(=O)(=O)c2ccc(NS(=O)(=O)c3ccc(SC)cc3)cc2)cc1,active: 23.1 µM,–
Cc1cccc(C(CC(=O)NCCc2ccccc2)c2ccccc2)c1O (stereo not given),"inconclusive: 29.1 µM [cytotoxic, single point]",–
Cc1cccc(C(=O)Oc2c(Sc3ccccc3)c(C)nn2C(C)(C)C)c1,–,inactive: -6.68%

# Some values from the list.
# For Potency, N=C1/C(=C/c2cccs2)C(=O)N=C2SN=C(SCc3ccccc3)N12 is listed with active: 23.1 µM
# For Potency, O=C1CCCN1CCCNc1nc2c(S(=O)(=O)c3ccccc3)nnn2c2ccc(Cl)cc12 is listed with inconclusive: 32.6 µM [cytotoxic, single point]
# For activity change, negative = cytotoxicity, Cc1c(C(=O)Nc2ccccc2Cl)oc2ccc(S(=O)(=O)N3CCCCC3)cc12 is listed with inactive: 8.9%
